# Results from one PubChem assay

Source: PubChem BioAssay AID1159506 (NCATS, 2015).

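Genome-wide siRNA knockdown in TC32 Ewing sarcoma cells, comparing luciferase light from an NR0B1-promoter reporter with a CMV-promoter reporter 48 hours after transfection.
Each siRNA was applied at 20 nM.
A z-score of the log NR0B1-over-CMV signal, less the median of siRNAs with the same seed; more negative means a stronger specific loss of the NR0B1 reporter.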

The strongest results of the screen are mostly left out here.
Sequences are the guide (antisense) strand, without overhang.

Result for UUCCGACGCAUCAUCUUUC against FGFR1OP2 was seed-corrected z-score 0.5262. UAAGCUCUGACCGGCAACC against MPV17 read seed-corrected z-score 0.6514. For ACAGAAACGAGGAUUUUGC against MRGPRX4 the result was seed-corrected z-score 0.09889. With UCAGCGAAUAGGCAAAGGU against IGFLR1 the assay gave seed-corrected z-score 0.6564. UAGGAGAAGACGGUGCUGC against GRIN3B read seed-corrected z-score -0.4196. With UUCUUGUUAAGGCACAUUG against MLANA the assay gave seed-corrected z-score 0.4399. With UUUCUUUACACUGAUGGAA against YBEY the assay gave seed-corrected z-score 0.4029.

UCAAUAACCUGUGCUCUGC against GPBP1L1 read seed-corrected z-score 0.8842. With AUUGGGCUUAUCUAACAGC against B3GAT3 the assay gave seed-corrected z-score -0.9076. UUCUCUGUGAGUCUUUCCC against TEX35 gave seed-corrected z-score -0.9355. UAACACGUAACCAUAAGGC against KIAA0368 gave seed-corrected z-score 0.2018. Result for UCCUAGAUUGGGAAUAGCG against FAM175B was seed-corrected z-score 0.4006. UAUAUGAGAGCGGGUCUCC against SPDYE14P read seed-corrected z-score -1.102. Result for UAUCAGUCUCUCCAUAAUC against SPIDR was seed-corrected z-score 0.8266.

For UUUUUAACUACUGCGAUAU against ACBD6 the result was seed-corrected z-score 0.2368. With UGUUUGGAUAUCCUCCGGG against BMS1P5 the assay gave seed-corrected z-score 1.055. UAUCGUUGAAGUGUGGAUC against CSNK2A2 read seed-corrected z-score -0.6279. UGUAUCUCAACCGUGACUC against SEMA3D gave seed-corrected z-score -0.4687. UUGACUACGCUGAUCAUUC against ANKRD28 read seed-corrected z-score 1.042. Result for UAUGCAUCUAGACAUAUGG against MED9 was seed-corrected z-score 0.832. For UCUUUGUAACCUGCCCUCC against ZKSCAN4 the result was seed-corrected z-score 0.6547.

AGUGUUGCUAACAAUAACG against ZNF280A gave seed-corrected z-score 1.105. For UUGCUUAUCAGACAUCUGC against PAXIP1 the result was seed-corrected z-score -0.7606. UUGUAGUCUACAGUUAUGC against ADAM32 gave seed-corrected z-score -0.1151. AGAAUUCUCAGGUCUGUAC against CTSV gave seed-corrected z-score 0.2008. UCUUGCACCCGAUAUAUUG against PTH2R read seed-corrected z-score 0.1397. AGAGAUAUGAGUAUCACUC against VN1R1 gave seed-corrected z-score -0.1304. For UCCUCGUUCUGUUUGGUGG against RER1 the result was seed-corrected z-score 1.574.

Result for UUGUAGUUACAGAAUCUGG against TRAPPC13P1 was seed-corrected z-score -0.747. With UCUGUUCUAAGUAGGUCUG against PARP3 the assay gave seed-corrected z-score -0.3261. For AAAGUCAACAGGAAAAGGA against STAG3L1 the result was seed-corrected z-score -0.1347. With UUGGAUUCGAUUCUGGGCC against MST1R the assay gave seed-corrected z-score 0.8578. Result for UCUGUAAUAAUCAAGAACG against ATXN10 was seed-corrected z-score 0.2555. Result for UUCUUUUCCGCAGCCUUCC against PLD3 was seed-corrected z-score 0.9808. For UUGCUGUUCCGGACUAUUC against INO80C the result was seed-corrected z-score 0.4469.

With UGUCAGUCCAGAGCAGUCC against KRT42P the assay gave seed-corrected z-score -0.9341. For UAACCCACAGUUGUAGGCC against PIR the result was seed-corrected z-score -0.5951. Result for UUAGAUCACGUACAUAACG against TPTE was seed-corrected z-score -0.3538. With UUAAUGAUACCAGCUUCCU against TRAPPC13P1 the assay gave seed-corrected z-score -0.4856. UUCGUGUUCGCUCUACUGC against ATG12 gave seed-corrected z-score 0.1882. Result for UUCGCGUUAAGGUCGUUGA against ZFR2 was seed-corrected z-score 0.005103. UUCUCAGACAUAUUUACCC against PROSER1 gave seed-corrected z-score -0.6637.

Result for UAUAAGACAGGAUAACAAG against OR52K2 was seed-corrected z-score -0.1968.

2 of the entries, repeated:

strand,target gene,seed-corrected z-score
UAUGCAUCUAGACAUAUGG,MED9,0.832
UAAGCUCUGACCGGCAACC,MPV17,0.6514